PubChem BioAssay AID1053208 | Peter MacCallum Cancer Centre, 2014
Assay: 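Find knock-downs that sensitise mouse osteosarcoma cells to doxorubicin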 (primary screen). System: mouse osteosarcoma cells, early-passage culture from an engineered mouse model of fibroblastic bone tumour. Reagents: siRNA pool against mouse genes, 40 nM. Timing: about 120 h (48 h before drug, then 72 h with drug). Treatment: doxorubicin 100 nM for 72 h, roughly 30-40% inhibitory dose. Detection: 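Viability read as ATP luminescence after 72 h of 100 nM doxorubicin or none, duplicate wells averaged, scaled to non-targeting siRNA, then expressed as robust z-scores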. Scale: viability z-score with doxorubicin: higher = more viable cells under doxorubicin; viability z-score without drug: higher = more viable cells with knock-down alone. Rule for the call: 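a pool counts as active when its viability z-score with doxorubicin is -2 or below and its z-score without drug lies between -2 and 2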.
In all, the deposit lists about 17,000 reagents; below is a random part of them. 788 of them (4.7%) were called active. 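Calls rest on z-score classes alone; an extra cut-off of viability at most 70% of control was not applied to them.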 Unmarked entries are inactive. Not all columns of the deposit are shown. Reagent sequences are not shown.

| gene symbol | combined z-score class | viability z-score with doxorubicin | viability z-score without drug |
| --- | --- | --- | --- |
| Kcnk3 | no change with or without drug | -0.67 | -0.84 |
| Ppp1r21 | no change with or without drug | 1.69 | 1.52 |
| Cd300a | no change with or without drug | -1.69 | -0.51 |
| Dcaf12l1 | no change with or without drug | 0.56 | -0.17 |
| Lingo1 | no change with or without drug | -0.11 | -1.52 |
| Kcnt1 | no change with or without drug | -0.9 | -0.51 |
| Zfp281 | no change with or without drug | -1.01 | 1.18 |
| Siral2 | no change with or without drug | 0.9 | 0.17 |
| Scd1 | high cell count with and without drug | 2.02 | 2.36 |
| Atpsckmt | no change with or without drug | 0 | 0.84 |
| Muc6 | no change with or without drug | -0.45 | -0.67 |
| Psmb8 | no change with or without drug | 1.12 | 1.69 |
| Egr2 | no change with or without drug | 0.67 | 0.34 |
| Rb1 | no change with or without drug | 1.46 | 0.84 |
| Or7h8 | no change with or without drug | 0.45 | 0.34 |
| Rnf32 | no change with or without drug | 0.34 | -0.51 |
| Irf1 | high cell count without drug only | 0 | 3.37 |
| C1qtnf5 | no change with or without drug | 0 | 1.01 |
| Serpinb7 | no change with or without drug | -0.22 | -1.01 |
| Sulf2 | no change with or without drug | 0.45 | 0.51 |
| Snrpa | no change with or without drug | 1.12 | 0.51 |
| Antxr1 | no change with or without drug | -0.11 | 0.51 |
| Cxcr1 | no change with or without drug | 0.9 | -0.84 |
| Or4b13 | no change with or without drug | -1.12 | -0.84 |
| Tex11 | no change with or without drug | -1.12 | -0.51 |
| Orc3 | no change with or without drug | -0.56 | 0.51 |
| Ogfod1 | no change with or without drug | -1.8 | -0.51 |
| Isyna1 | no change with or without drug | -0.67 | -0.51 |
| Trpc4 | no change with or without drug | -0.34 | 0 |
| Tac4 | no change with or without drug | 0.11 | 0.51 |
| Trem5 | no change with or without drug | -0.67 | 0.17 |
| Cadm4 | no change with or without drug | -1.35 | 0.34 |
| Tbx21 | no change with or without drug | 0 | 0.84 |
| Trpm4 | no change with or without drug | 0.34 | 1.18 |
